The other results are listed elsewhere or left out.
Molecular target: OsWRKY34 (Oryza sativa, UniProt Q0JBA9 1-250)
Test: protein-binding microarray (RPBM); PBS, 2% BSA, 51.3 ng/ul salmon testes DNA, 50 uM zinc acetate, 200 nM TF, 25 C, 1 h; high values mean tight binding
Conditions: protein: recombinant; tags: N-terminal polyhistidine and DsRed monomer fusion (pET32a); label: CyDye5-dUTP incorporated in the synthesized complementary strand; 3' TTTTT single-stranded linker to array surface; dsDNA, one strand shown
Method in brief: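 Ni–NTA purification followed expression in E. coli BL21-CodonPlus of transcription factors fused N-terminally to a polyhistidine tag and DsRed. At 200 nM in PBS with 2% BSA, salmon testes DNA and 50 µM zinc acetate, the protein was incubated for 1 h at 25 °C with a custom Agilent array that had been primer-extended with Cy5-dUTP and blocked with 2% BSA. After washing, the array was read on an Axon 4000B scanner. The binding signal is per-feature fluorescence intensity in arbitrary units.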

Sequences of proteins named here, by UniProt entry; tags and fusion partners are left off.
UniProt Q0JBA9, entry or part of it: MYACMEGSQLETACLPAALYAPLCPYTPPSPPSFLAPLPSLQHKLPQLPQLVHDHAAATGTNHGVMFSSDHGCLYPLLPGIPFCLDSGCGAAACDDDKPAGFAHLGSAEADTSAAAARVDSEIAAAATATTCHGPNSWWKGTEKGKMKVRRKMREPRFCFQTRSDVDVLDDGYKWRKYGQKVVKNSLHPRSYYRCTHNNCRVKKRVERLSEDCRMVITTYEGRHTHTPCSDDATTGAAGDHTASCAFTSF

Sequence	binding signal
CTTTCCCTATCTTTCTCCTCATCATATGTGTCATGATGCACGGAGTCACCTAGTGCAG	8610 fluorescence intensity (a.u.)
GAAAACTACACAGTACTACGCGTTTCTTGTTCACACTTGCCGGAGTCACCTAGTGCAG	10100 fluorescence intensity (a.u.)
ATTGCAACTGTCGGTCAACTGCTCCATTGATCGATCTCTCCGGAGTCACCTAGTGCAG	9630 fluorescence intensity (a.u.)
AGAACACCATACACGTCCGGCTTCTCATGCGTCCACCGCTCGGAGTCACCTAGTGCAG	8920 fluorescence intensity (a.u.)
CCACTGTCCAGAGGTCACTGATGTTGGTCTAGGCCACCTTCGGAGTCACCTAGTGCAG	8540 fluorescence intensity (a.u.)
GGAAGAGATGGGAATTTTGGTGGGATAGGAATGGGGAATTCGGAGTCACCTAGTGCAG	8350 fluorescence intensity (a.u.)
CCGCCATCCCCACCACGGGATCCACCATCGCCGAGGCCCCCGGAGTCACCTAGTGCAG	8080 fluorescence intensity (a.u.)
CCTCTTTTCTTTTTTCTTTTCAACCAAGGGTTTAACTTTCCGGAGTCACCTAGTGCAG	12500 fluorescence intensity (a.u.)
AAATAAACGGTCAAATATATTTAAAAAAAAGTCAACGATGCGGAGTCACCTAGTGCAG	12000 fluorescence intensity (a.u.)
TTACCTAGGCTGAGTTTTTTTTCCCAACTTTCCTAACTCACGGAGTCACCTAGTGCAG	8980 fluorescence intensity (a.u.)
GTAGTACGTGTGTAATTACAAGATGCCCAGTAAAATTATTCGGAGTCACCTAGTGCAG	8060 fluorescence intensity (a.u.)
GTGACCCGCCCCGCCCATAACGGCACACTCTCCGTACTCTCGGAGTCACCTAGTGCAG	9780 fluorescence intensity (a.u.)
GTTGTCGGTGTGTGGGTGGTGATATATTTTTTTAACTGGTCGGAGTCACCTAGTGCAG	9020 fluorescence intensity (a.u.)
GGTGTGTGCTGGCTATTTGTCAAAGATTATGTGGGTTTTTCGGAGTCACCTAGTGCAG	10400 fluorescence intensity (a.u.)
TCCTCGCCGCCGCCAACAAAGTCTGTACCGTCCCCGCGCCCGGAGTCACCTAGTGCAG	9460 fluorescence intensity (a.u.)
ATGTTTCTTGCGCGTGGGATCGAGCCAATCAAGTTGTTTTCGGAGTCACCTAGTGCAG	9280 fluorescence intensity (a.u.)
TTGGGTATAGGTTTTTTAGAAGTCATTTGCTTTTTTTATTCGGAGTCACCTAGTGCAG	10300 fluorescence intensity (a.u.)
TACTACGTCACATTTTAGTCATGCTACATTTTCTCAGGCACGGAGTCACCTAGTGCAG	8910 fluorescence intensity (a.u.)
AAATTTTTGGGATCTAAACACACCCTAAATCAAATCCATGCGGAGTCACCTAGTGCAG	8180 fluorescence intensity (a.u.)
CAATCCACATCTTGATTTGTGCTGCGTGTTTCCCGTCTGTCGGAGTCACCTAGTGCAG	10200 fluorescence intensity (a.u.)
CGGAGAGGGAGAAGGAGAGGAGAGGGGCTGATAGGTGGGGCGGAGTCACCTAGTGCAG	9920 fluorescence intensity (a.u.)

Taken from above.
GGTGTGTGCTGGCTATTTGTCAAAGATTATGTGGGTTTTTCGGAGTCACCTAGTGCAG | binding signal: 10400 fluorescence intensity (a.u.)
CCTCTTTTCTTTTTTCTTTTCAACCAAGGGTTTAACTTTCCGGAGTCACCTAGTGCAG | binding signal: 12500 fluorescence intensity (a.u.)
ATGTTTCTTGCGCGTGGGATCGAGCCAATCAAGTTGTTTTCGGAGTCACCTAGTGCAG | binding signal: 9280 fluorescence intensity (a.u.)

Continued:

Sequence	binding signal
TGCCTAATGTGTTGTCGCACGTATTCCTTGTTGCATGCCTCGGAGTCACCTAGTGCAG	9600 fluorescence intensity (a.u.)
TCCCTTCATTTTTTTTCTTTGACGTTGGTTAGCTCAAAAACGGAGTCACCTAGTGCAG	9120 fluorescence intensity (a.u.)
ACCCATCTCTCTTCTCGAGCATGAACAATCTCGATTACATCGGAGTCACCTAGTGCAG	8520 fluorescence intensity (a.u.)
GCAGCTCCTTTTTTTCTCCTATGGACTCACGACTCAGTCACGGAGTCACCTAGTGCAG	8260 fluorescence intensity (a.u.)
GGTTTGGGACCTGCTGTTGCGCACCTATATCAACACCAACCGGAGTCACCTAGTGCAG	13200 fluorescence intensity (a.u.)
CGGACTTCGTTTTTGTTTATTTACTGAGGAGACCTTTTTTCGGAGTCACCTAGTGCAG	9170 fluorescence intensity (a.u.)
CCACTAGAACTGTCATTCGAGTGGTATCCTTGCAATATTCCGGAGTCACCTAGTGCAG	8640 fluorescence intensity (a.u.)
CCAGTCTATTTTGTGTTGGCTTTCCTGTTCGGTGTTGATGCGGAGTCACCTAGTGCAG	8310 fluorescence intensity (a.u.)
CACTACACTACTCTGGTCCACGCGCCGCGAGAACTACTCGCGGAGTCACCTAGTGCAG	8900 fluorescence intensity (a.u.)
ATCTTTAACAGGGAGCCGATGAAGAAATTTCAACGTTGTCCGGAGTCACCTAGTGCAG	8050 fluorescence intensity (a.u.)
TCACACCCTTCCATTTTTTTCCCCTGTGCCACCCCAATTCCGGAGTCACCTAGTGCAG	9490 fluorescence intensity (a.u.)
GCTTGATATACTATTTTCATGATGTGGTTCTTTTAAATTCCGGAGTCACCTAGTGCAG	11200 fluorescence intensity (a.u.)
CGCCATATTTCTTTTTTTTCTCTATATTCCTTTTCTATCTCGGAGTCACCTAGTGCAG	12300 fluorescence intensity (a.u.)
GCTTTCTCATTTACCTATATAAATCCTGACATGATTTCAGCGGAGTCACCTAGTGCAG	9400 fluorescence intensity (a.u.)
TACTCAACATGCTGCTCACGCCACAGCTCTAACCTGAAGCCGGAGTCACCTAGTGCAG	8200 fluorescence intensity (a.u.)
CGGCAGTTTGGATGATTTTTTTTGTTCCCAGTTGTTTAACCGGAGTCACCTAGTGCAG	8130 fluorescence intensity (a.u.)
ATGCTGAATTGGGTTGGGCTGGGGAGGAATTATAGACTATCGGAGTCACCTAGTGCAG	17500 fluorescence intensity (a.u.)
GCGCGCCCAAACGTCCAATCACCCACGGCCGCGCGGGCCCCGGAGTCACCTAGTGCAG	8300 fluorescence intensity (a.u.)
TCTCGGTGACGGCGGCCTCGTCCCACTCCCGCCCGGGGATCGGAGTCACCTAGTGCAG	8470 fluorescence intensity (a.u.)
GCCGCCGATCTACCTCCGCCGCCGCGCCCTCCCCTCGCCGCGGAGTCACCTAGTGCAG	10200 fluorescence intensity (a.u.)
TTTTCCTGTGGTTCAATCATACGGTCATTCCTGTGTTTTTCGGAGTCACCTAGTGCAG	11400 fluorescence intensity (a.u.)
